According to article PMC4639748:
These are yes or no findings as the source states them, for the method shown. For part of these data: Binding seen in cells or lysates may run through a third protein. For part of these data: A result given as binding can be weak or reduced; the word gives no strength. For part of these data: Sequences can lack the tags named with a protein. Values belong to the molecule of their own block, whether it stands above or below them.

Amino acid sequences for entries named in this document (tags omitted). A change or cut given only in a name is not applied to a line headed by its entry.
UniProt D3ZXM0: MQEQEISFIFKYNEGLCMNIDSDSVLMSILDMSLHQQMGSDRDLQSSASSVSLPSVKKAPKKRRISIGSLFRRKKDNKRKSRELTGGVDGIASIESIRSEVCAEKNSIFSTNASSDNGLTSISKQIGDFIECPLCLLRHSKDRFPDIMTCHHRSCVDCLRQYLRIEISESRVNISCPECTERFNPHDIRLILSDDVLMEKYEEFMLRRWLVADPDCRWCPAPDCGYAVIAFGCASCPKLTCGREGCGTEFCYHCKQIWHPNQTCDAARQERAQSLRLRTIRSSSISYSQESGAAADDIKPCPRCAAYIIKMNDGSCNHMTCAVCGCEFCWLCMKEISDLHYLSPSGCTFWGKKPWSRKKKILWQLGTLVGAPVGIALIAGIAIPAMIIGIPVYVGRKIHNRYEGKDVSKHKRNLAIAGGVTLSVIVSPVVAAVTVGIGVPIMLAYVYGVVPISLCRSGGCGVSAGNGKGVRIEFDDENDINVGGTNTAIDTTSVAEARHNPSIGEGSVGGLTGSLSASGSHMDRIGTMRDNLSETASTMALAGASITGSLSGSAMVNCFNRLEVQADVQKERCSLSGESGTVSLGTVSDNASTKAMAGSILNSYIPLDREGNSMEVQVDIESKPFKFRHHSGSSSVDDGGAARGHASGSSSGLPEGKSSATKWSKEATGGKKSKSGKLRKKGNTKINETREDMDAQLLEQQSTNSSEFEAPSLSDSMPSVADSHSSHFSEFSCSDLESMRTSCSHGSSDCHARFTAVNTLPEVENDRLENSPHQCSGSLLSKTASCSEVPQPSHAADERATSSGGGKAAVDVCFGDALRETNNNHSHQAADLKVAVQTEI
UniProt P50636: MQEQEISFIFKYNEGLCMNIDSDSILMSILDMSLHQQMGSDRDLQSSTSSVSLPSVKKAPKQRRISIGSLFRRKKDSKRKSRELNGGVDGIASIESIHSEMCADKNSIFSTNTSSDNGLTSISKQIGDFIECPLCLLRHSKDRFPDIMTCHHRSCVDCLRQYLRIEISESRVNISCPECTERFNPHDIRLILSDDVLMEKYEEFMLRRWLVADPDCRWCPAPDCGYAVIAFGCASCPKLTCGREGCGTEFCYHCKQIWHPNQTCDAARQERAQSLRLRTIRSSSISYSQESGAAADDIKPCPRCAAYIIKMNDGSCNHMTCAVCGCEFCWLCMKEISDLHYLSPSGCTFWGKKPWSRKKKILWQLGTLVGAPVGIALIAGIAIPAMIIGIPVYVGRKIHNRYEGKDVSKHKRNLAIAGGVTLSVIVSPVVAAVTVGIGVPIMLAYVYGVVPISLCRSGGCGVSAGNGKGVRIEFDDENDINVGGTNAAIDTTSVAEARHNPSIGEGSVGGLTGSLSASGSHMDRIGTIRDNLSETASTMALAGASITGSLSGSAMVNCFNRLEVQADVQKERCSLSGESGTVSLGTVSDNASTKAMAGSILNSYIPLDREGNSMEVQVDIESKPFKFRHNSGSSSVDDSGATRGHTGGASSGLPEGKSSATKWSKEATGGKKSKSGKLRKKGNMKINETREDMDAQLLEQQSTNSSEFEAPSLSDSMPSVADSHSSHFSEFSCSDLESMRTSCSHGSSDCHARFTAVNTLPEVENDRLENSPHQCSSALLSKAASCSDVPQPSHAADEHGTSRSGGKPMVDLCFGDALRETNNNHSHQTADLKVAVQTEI
UniProt Q62696: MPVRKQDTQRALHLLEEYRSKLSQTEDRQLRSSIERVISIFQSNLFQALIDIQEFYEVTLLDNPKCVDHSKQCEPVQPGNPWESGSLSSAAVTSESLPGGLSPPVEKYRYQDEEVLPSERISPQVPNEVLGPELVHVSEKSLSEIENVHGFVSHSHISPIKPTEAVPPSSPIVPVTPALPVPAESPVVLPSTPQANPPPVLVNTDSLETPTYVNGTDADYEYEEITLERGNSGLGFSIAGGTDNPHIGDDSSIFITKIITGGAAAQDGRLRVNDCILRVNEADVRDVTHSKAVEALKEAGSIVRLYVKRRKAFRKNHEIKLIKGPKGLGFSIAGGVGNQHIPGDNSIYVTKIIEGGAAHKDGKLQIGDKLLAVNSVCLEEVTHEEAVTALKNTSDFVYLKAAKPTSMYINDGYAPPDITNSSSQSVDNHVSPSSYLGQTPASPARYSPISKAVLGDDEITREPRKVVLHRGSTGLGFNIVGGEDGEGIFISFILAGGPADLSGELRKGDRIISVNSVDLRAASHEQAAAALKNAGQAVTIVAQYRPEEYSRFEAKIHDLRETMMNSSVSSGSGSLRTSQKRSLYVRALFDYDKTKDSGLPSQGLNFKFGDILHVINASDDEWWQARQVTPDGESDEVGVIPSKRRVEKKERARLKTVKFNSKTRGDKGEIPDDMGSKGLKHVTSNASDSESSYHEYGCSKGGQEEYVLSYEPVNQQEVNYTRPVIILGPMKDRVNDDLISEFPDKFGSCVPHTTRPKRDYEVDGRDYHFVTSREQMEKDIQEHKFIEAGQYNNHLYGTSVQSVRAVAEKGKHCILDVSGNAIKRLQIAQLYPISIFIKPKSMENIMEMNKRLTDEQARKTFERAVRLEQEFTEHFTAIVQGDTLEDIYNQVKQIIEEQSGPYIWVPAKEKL
UniProt P62136: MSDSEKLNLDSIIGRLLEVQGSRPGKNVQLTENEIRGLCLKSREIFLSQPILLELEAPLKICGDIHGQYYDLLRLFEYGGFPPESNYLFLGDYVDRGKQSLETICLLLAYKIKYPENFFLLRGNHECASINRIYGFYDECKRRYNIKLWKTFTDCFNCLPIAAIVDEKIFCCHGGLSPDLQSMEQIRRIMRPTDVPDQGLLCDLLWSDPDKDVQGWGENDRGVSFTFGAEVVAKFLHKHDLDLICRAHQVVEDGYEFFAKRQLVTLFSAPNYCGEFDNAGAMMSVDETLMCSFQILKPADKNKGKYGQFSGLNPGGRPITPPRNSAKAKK
UniProt P62140: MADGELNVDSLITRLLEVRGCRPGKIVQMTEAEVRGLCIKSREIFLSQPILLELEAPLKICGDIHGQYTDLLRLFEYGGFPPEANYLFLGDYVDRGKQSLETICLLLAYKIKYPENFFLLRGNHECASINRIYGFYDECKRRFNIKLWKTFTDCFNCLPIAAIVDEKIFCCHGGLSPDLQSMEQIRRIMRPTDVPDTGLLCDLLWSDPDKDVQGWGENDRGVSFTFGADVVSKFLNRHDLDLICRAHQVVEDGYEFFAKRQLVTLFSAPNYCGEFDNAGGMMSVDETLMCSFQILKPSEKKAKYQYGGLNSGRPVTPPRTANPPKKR
UniProt P0C0S6: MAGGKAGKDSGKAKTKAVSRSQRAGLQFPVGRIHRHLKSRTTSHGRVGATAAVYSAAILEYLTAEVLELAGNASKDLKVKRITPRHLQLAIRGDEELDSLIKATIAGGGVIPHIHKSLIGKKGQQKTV

Tests used:
[1] = target: Flag-Dorfin (full length; WT) (rat) (UniProt D3ZXM0); assay: co-IP; HEK293T cells doubly transfected with Flag-Dorfin (WT or Δ3) and PSD-95 or SAP97; immunoprecipitated with Flag antibodies, immunoblotted
[2] = target: T1, Dorfin (aa 834–840; wild type) in pBHA (mouse) (UniProt P50636); assay: two-hybrid; Dorfin aa 834–840 (WT or I840A) in pBHA (bait vector), PDZ domains in pGAD10 (prey vector); β-galactosidase and HIS3 activity
T1 sequence: VAVQTEI

[3] = target: Myc-Dorfin (full-length rat Dorfin) (rat) (UniProt D3ZXM0); assay: co-IP; HEK293 cells doubly expressing Myc-Dorfin and the indicated proteins; immunoprecipitated and immunoblotted with Myc or EGFP antibodies

Molecule: EGFP-SAP97 (full length) (from UniProt Q62696 1-911)
binding [1]: binds

Molecule: PDZ domains of S-SCAM in pGAD10 (domain or fragment)
binding [2]: no binding

Molecule: PP1-α catalytic subunit (full-length pEGFP-PP1α) (from UniProt P62136 1-330) (enzyme)
binding [3]: binds

Further lines, results first:

binding [3]: binds
Molecule: PP1-β catalytic subunit (full-length pEGFP-PP1β) (from UniProt P62140 1-327) (enzyme)

binding [3]: binds
Molecule: histone H2A.Z (pEGFP-H2Afz) (from UniProt P0C0S6 1-128)

binding [3]: binds
B1: neurofilament M (full-length pEGFP-mNFM) (protein, UniProt P08553 1-848)
chain: MSYTLDSLGNPSAYRRVTETRSSFSRVSGSPSSGFRSQSWSRGSPSTVSSSYKRSALAPRLAYSSAMLSSAESSLDFSQSSSLLNGGSGGDYKLSRSNEKEQLQGLNDRFAGYIEKVHYLEQQNKEIEAEIQALRQKQASHAQLGDAYDQEIRELRATLEMVNHEKAQVQLDSDHLEEDIHRLKERFEEEARLRDDTEAAIRALRKDIEESSMVKVELDKKVQSLQDEVAFLRSNHEEEVADLLAQIQASHITVERKDYLKTDISTALKEIRSQLECHSDQNMHQAEEWFKCRYAKLTEAAEQNKEAIRSAKEEIAEYRRQLQSKSIELESVRGTKESLERQLSDIEERHNHDLSSYQDTIQQLENELRGTKWEMARHLREYQDLLNVKMALDIEIAAYRKLLEGEETRFSTFSGSITGPLYTHRQPSVTISSKIQKTKVEAPKLKVQHKFVEEIIEETKVEDEKSEMEETLTAIAEELAASAKEEKEEAEEKEEEPEAEKSPVKSPEAKEEEEEGEKEEEEEGQEEEEEEDEGVKSDQAEEGGSEKEGSSEKDEGEQEEEEGETEAEGEGEEAEAKEEKKIEGKVEEVAVKEEIKVEKPEKAKSPMPKSPVEEVKPKPEAKAGKGEQKEEEKVEEEKKEVTKESPKEEKVEKKEEKPKDVADKKKAESPVKEKAVEEVITISKSVKVSLEKDTKEEKPQPQEKVKEKAEEEGGSEEEGSDRSPQESKKEDIAINGEVEGKEEEEQETQEKGSGREEEKGVVTNGLDVSPAEEKKGEDSSDDKVVVTKKVEKITSEGGDGATKYITKSVTVTQKVEEHEETFEEKLVSTKKVEKVTSHAIVKEVTQGD
